Results on 116 substances are retold here after the supplement of paper PMC5949888.

Most values lie at the floor of the assay. Slopes are relative: functional sequences can read slightly below zero.

The test system of the data set is Saccharomyces cerevisiae PS128 hsf1 delta, HSF1(1-493) fusion. As to the kind of experiment: growth estimate (transactivation domain function in HSF1 fusion, heat-shock survival) (a.u. (slope of normalised read count over time)); higher = stronger growth at 37°C, i.e. more transactivation activity. The conditions noted are these: library: random library.
With GSSSLSQANCHSEG, the growth estimate is less than -0.25.

As for VQLRGLLDSVSSGPVAGGTA, the growth estimate is less than -0.25.

For AVMATGATSVW, the growth estimate was less than -0.25.

Turning to PRVRRSCLGEEGHGTSSKWK, the growth estimate is less than -0.25.

With LLAYDFVSGHTLELDLSYAA, the growth estimate was -0.213.

On to IRGESSTEVNGDPRFSSHSP, for which the growth estimate was less than -0.25.

For the substance AARGTSNTRLLSGNTLKDGV, the growth estimate is less than -0.25.

With PQASSMMLQLVLYRGAMDRR, the growth estimate was less than -0.25.

IRVNSPDPGLR: the growth estimate is less than -0.25.

On to HHEYEDWVVLRS, for which the growth estimate is -0.213.

In the case of ACDQTLKCRVFEGVSAKRTL, the growth estimate was less than -0.25.

Take PLGDKLPVSGFLVTTEEALV: the growth estimate was less than -0.25.

With LPAALW, the growth estimate was less than -0.25.

Consider GCRP, for which the growth estimate was less than -0.25.

Take DGAY: the growth estimate was less than -0.25.

As to SKEGWGRSKLRCTAFRARPR, the growth estimate was less than -0.25.

Consider WMH, for which the growth estimate is -0.245.

With TACIAPGRGRPDLRLDSVRD, the growth estimate was less than -0.25.

As for ERARRIVDGRPRSLGRIRSG, the growth estimate was less than -0.25.

For GFSTGVPRAFTTRRSRSRGT, the growth estimate was less than -0.25.

Turning to FIGC, the growth estimate is less than -0.25.

With SVGTSALTNRI, the growth estimate is less than -0.25.

For QDGSRRACYVG, the growth estimate is less than -0.25.

For WQRVHEE, the growth estimate is less than -0.25.

As to LIHGAGARINERRWGFCVKV, the growth estimate was less than -0.25.

In the case of VIGILTSGYGH, the growth estimate was less than -0.25.

As to PVIAECCG, the growth estimate is less than -0.25.

As to DANEEYMFESKWLSLTPETC, the growth estimate was less than -0.25.

IKTNGSS: the growth estimate is less than -0.25.

Consider HTRFRQTRAT, for which the growth estimate is less than -0.25.

With IWPEDRYVSGVYIAPTTLVR, the growth estimate was less than -0.25.

As to TPDFTSYSISCSQPSSLLIF, the growth estimate is less than -0.25.

Regarding LTQSARSKGLVIPMVVGIRL, the growth estimate was less than -0.25.

In the case of GPGGRK, the growth estimate was less than -0.25.

Take YYRDLRPRCGPRLINSVALP: the growth estimate was less than -0.25.

For AAGNDLSGRPGFGTACKKIC, the growth estimate was less than -0.25.

As for GRRHVVGRRSLLKAKLTAPY, the growth estimate is less than -0.25.

Consider RYERHQSQKRD, for which the growth estimate was less than -0.25.

Take KYVIDD: the growth estimate was less than -0.25.

Turning to VWIRFTRVSRH, the growth estimate was -0.243.

For FSLTSTVREGRRTAHPRTGQ, the growth estimate is -0.235.

PPF: the growth estimate is less than -0.25.

Take STKV: the growth estimate was less than -0.25.

For the substance RLPWHWALFRATAGRISK, the growth estimate was less than -0.25.

DHLGNFLNAVRKAM: the growth estimate was less than -0.25.

With LALTNRQLLHYIV, the growth estimate is less than -0.25.

As to TMLVGSLAALFQRSYCEIHA, the growth estimate was less than -0.25.

For the substance NFRAALAGERWYSCAGDPC, the growth estimate was less than -0.25.

As for VRLRLAYKSFRGYISFALRS, the growth estimate is less than -0.25.

Take SLEVSSGVRLRLIASAKRML: the growth estimate was less than -0.25.

As to AMPSQYRSARRSTTKFSDRS, the growth estimate was less than -0.25.

As to SPHLGVPNRVFCRSSSLVIV, the growth estimate is less than -0.25.

With GVTARGVRTPCNMPLLY, the growth estimate was less than -0.25.

For the substance ATTAWRLFISAGGVD, the growth estimate is less than -0.25.

RAGRKQRLWPVQNH: the growth estimate is less than -0.25.

For the substance VLGVTESVYHGTRE, the growth estimate is less than -0.25.

Regarding LAQSCSVC, the growth estimate is less than -0.25.

Consider ITRRSGFSISR, for which the growth estimate was less than -0.25.

With LVGKYEWVCVVKSAQSDQSP, the growth estimate is -0.245.

Take LEAARTVIDQMYIE: the growth estimate was less than -0.25.

Turning to GCDTYLWGSQR, the growth estimate is less than -0.25.

DDMGEPDQAVLRPS: the growth estimate was less than -0.25.

Regarding GTITR, the growth estimate is less than -0.25.

WVT: the growth estimate was less than -0.25.

On to EPYVTYCVSMSLCFWACRDM, for which the growth estimate is less than -0.25.

With RLMSRLKSKDPL, the growth estimate was less than -0.25.

For the substance VDSGATIPINLQHCGKTRGS, the growth estimate was -0.243.

For SVRIRLFEDEVSSRGLYDTR, the growth estimate is less than -0.25.

As to GRSIWVT, the growth estimate is less than -0.25.

For the substance VRLPTLTWSSQD, the growth estimate was less than -0.25.

As to SIPMMERTNKNTTFGNS, the growth estimate is less than -0.25.

For the substance SAFEANCRVKTDWKIGYRTQ, the growth estimate was less than -0.25.

For ALRDVKTSESSNVSNGLNGV, the growth estimate was less than -0.25.

For SQYIRCHTSCRGDTRAF, the growth estimate is -0.212.

Turning to FLAHQRT, the growth estimate is less than -0.25.

Consider GDPPGGGPCRDRDQT, for which the growth estimate was less than -0.25.

Regarding PKLYTAIVSNTRKWGQVRYL, the growth estimate is less than -0.25.

Turning to EITT, the growth estimate is -0.243.

With VGKTVNLHRGSTR, the growth estimate is less than -0.25.

With VAWRNARRCGGASKT, the growth estimate is less than -0.25.

With LGPLFGGDG, the growth estimate was less than -0.25.

In the case of GMQGPEASSELGGVTYAVEA, the growth estimate is less than -0.25.

Consider LEGG, for which the growth estimate was less than -0.25.

As to PIVVRTLPRAMIEYLRCVED, the growth estimate was less than -0.25.

For LWAC, the growth estimate was less than -0.25.

Turning to AMDMNLGLPDAQDRGRITCD, the growth estimate is -0.246.

As for HHFIRPGTRDKGTGVIRSRR, the growth estimate is less than -0.25.

WRGVPSDSRNPI: the growth estimate is less than -0.25.

For the substance CWNKHVGVVTQLEVQEGQTR, the growth estimate is less than -0.25.

Take AFGEVVPYLAGYCCPPRCGR: the growth estimate was less than -0.25.

Consider VWARMENRYSRFLATGTDSA, for which the growth estimate is less than -0.25.

Regarding FISVCGRTWPLHSVLERPTA, the growth estimate is less than -0.25.

As for IKYSEI, the growth estimate is less than -0.25.

As for AFIS, the growth estimate is less than -0.25.

On to MPGRSTAGSY, for which the growth estimate was less than -0.25.

As to CRGRPKMRRCLELKCAETGA, the growth estimate was less than -0.25.

Take PLKWRRVSAAVRFHIESPVN: the growth estimate was less than -0.25.

As to ITSVFVSIGHEWLSSSYGIC, the growth estimate was less than -0.25.

For the substance QSRWSNPTPLKTPLNVFSLR, the growth estimate is less than -0.25.

For the substance GQARPQPTCCFRG, the growth estimate was less than -0.25.

For the substance GGLRRG, the growth estimate was less than -0.25.

As to QGSGV, the growth estimate is less than -0.25.

With FPRTTLSGRLPYRFNECSLR, the growth estimate was less than -0.25.

Take NSVTGGIASVSRRKSANLKD: the growth estimate is less than -0.25.

Turning to SSLLGRTVS, the growth estimate is less than -0.25.

With NKGLHIGDQHTSVARAGWET, the growth estimate is -0.155.

For the substance PEGFNQKCEAAKLPIKLVAV, the growth estimate was less than -0.25.

In the case of QHKQ, the growth estimate was less than -0.25.

On to RMHTRHALLDVCW, for which the growth estimate is less than -0.25.

For ITERIRVDLLPFGTGLLAFI, the growth estimate was less than -0.25.

Take VGQFWSGYISAKPLCMFIRC: the growth estimate was less than -0.25.

Regarding REKWGRS, the growth estimate was less than -0.25.

As to EDSYIKAH, the growth estimate is less than -0.25.

Take EWSRGHCKLN: the growth estimate was less than -0.25.

RRLPALMAIPFTSAEAGPVS: the growth estimate is less than -0.25.

In the case of SCNTIYIDYAVMES, the growth estimate was -0.248.
